Experiment [1] concerns the target KIR3DL2, on cells (TALL-104 T cell line; NK clones) (human) (UniProt P43630). Description: tetramer staining of TALL-104 cells (MHC-I OC negative), flow cytometry. For orientation: In flow cytometry, cells or beads pass a laser one at a time.
For experiment [2] the target is unchanged. Description: tetramer staining of resting NK clones, flow cytometry.

Sequences of proteins named here, by UniProt entry; tags and fusion partners are left off. Residues count along the entry.
UniProt P43630, residues 22-455: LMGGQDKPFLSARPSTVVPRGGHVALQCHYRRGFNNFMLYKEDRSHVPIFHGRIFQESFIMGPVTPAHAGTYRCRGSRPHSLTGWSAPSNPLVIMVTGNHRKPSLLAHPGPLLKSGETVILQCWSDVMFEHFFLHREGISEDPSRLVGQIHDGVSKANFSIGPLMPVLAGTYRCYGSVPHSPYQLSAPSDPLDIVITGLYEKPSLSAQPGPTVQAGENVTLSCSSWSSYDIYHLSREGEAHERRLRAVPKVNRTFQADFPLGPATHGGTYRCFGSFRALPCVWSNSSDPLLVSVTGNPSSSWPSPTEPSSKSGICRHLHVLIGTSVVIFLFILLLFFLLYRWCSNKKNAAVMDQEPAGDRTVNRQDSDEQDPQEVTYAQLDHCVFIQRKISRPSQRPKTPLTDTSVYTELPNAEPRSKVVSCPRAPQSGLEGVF

These are yes or no findings as the source states them, for the method shown. Some entries that bind do so weakly or less than the wild type.

B1: HLA-F tetramer (other, human, UniProt P30511 22-296, looked up)
MHC heavy: GSHSLRYFSTAVSRPGRGEPRYIAVEYVDDTQFLRFDSDAAIPRMEPREPWVEQEGPQYWEWTTGYAKANAQTDRVALRNLLRRYNQSEAGSHTLQGMNGCDMGPDGRLLRGYHQHAYDGKDYISLNEDLRSWTAADTVAQITQRFYEAEEYAEEFRTYLEGECLELLRRYLENGKETLQRADPPKAHVAHHPISDHEATLRCWALGFYPAEITLTWQRDGEEQTQDTELVETRPAGDGTFQKWAAVVVPPGEEQRYTCHVQHEGLPQPLILRWE
modifications: BirA biotinylated, bound to streptavidin-PE
notes: 1 µg BirA biotinylated monomer incubated with 1.5 µg streptavidin-PE
For B1, the binding result in experiment [1] and in experiment [2] was “binds” throughout.

For the origin of these results see patent US20160045594A1, “DIRECTED IMMUNE STIMULATION” (Fred Hutchinson Cancer Research Center, priority 2013, published 2016).
